Data set [1] deals with T1, Sfc1 111-396 (Schizosaccharomyces pombe) (UniProt O14229).
T1 sequence (looked up): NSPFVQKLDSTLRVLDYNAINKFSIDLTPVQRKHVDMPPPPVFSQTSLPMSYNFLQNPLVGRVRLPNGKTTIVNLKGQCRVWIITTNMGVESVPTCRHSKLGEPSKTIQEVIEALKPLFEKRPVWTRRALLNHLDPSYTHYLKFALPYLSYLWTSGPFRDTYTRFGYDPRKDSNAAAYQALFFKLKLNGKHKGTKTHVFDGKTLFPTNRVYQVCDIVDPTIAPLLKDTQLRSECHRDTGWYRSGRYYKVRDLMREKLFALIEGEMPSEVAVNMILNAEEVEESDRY
Kind of data set: filter binding. As to conditions: Buffer D: 20 mM Tris-HCl pH 7.5, 200 mM KCl, 2 mM MgCl2, 10 mM DTT, 25 C (EMSA and nitrocellulose filter binding); recombinant protein; residues 111-396; protein details: N-terminal His-tag, TEV-cleaved; label: 32P.

Data set [2] deals with T2, Sfc1-DBD R237A/R238A (Schizosaccharomyces pombe) (UniProt O14229).
T2 sequence (looked up): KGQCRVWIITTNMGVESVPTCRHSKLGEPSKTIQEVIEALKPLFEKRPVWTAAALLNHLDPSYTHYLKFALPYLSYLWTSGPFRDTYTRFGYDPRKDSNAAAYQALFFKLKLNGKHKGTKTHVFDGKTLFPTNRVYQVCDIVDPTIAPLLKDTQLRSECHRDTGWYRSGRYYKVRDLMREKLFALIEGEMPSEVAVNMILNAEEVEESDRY
Kind of data set: filter binding. As to conditions: Buffer D: 20 mM Tris-HCl pH 7.5, 200 mM KCl, 2 mM MgCl2, 10 mM DTT, 25 C (EMSA and nitrocellulose filter binding); recombinant protein; residues 186-396; protein details: N-terminal His-tag, TEV-cleaved; label: 32P.

Data set [3] has as its target T2, Sfc1-DBD R237A/R238A (Schizosaccharomyces pombe). Description: EMSA. As to conditions: Buffer D: 20 mM Tris-HCl pH 7.5, 200 mM KCl, 2 mM MgCl2, 10 mM DTT, 25 C (EMSA and nitrocellulose filter binding); recombinant protein; residues 186-396; protein details: N-terminal His-tag, TEV-cleaved; label: 32P. (A gel shift assay detects complexes by their altered migration in electrophoresis.)

For data set [4], the target named is T3, Sfc1-DBD R269A/K294A (Schizosaccharomyces pombe) (UniProt O14229).
T3 sequence (looked up): T2 sequence (looked up) with A52R, A53R, R84A, K109A
Kind of data set: EMSA. As to conditions: Buffer D: 20 mM Tris-HCl pH 7.5, 200 mM KCl, 2 mM MgCl2, 10 mM DTT, 25 C (EMSA and nitrocellulose filter binding); recombinant protein; residues 186-396; protein details: N-terminal His-tag, TEV-cleaved; label: 32P.

Where a chain is given by its changes, count along the chain named. For some of these results: A weaker result is weaker than the reference pair of the same experiment. Where a protein sequence is shown, tags need not be part of it. For some of these results: For at least one entry, the source does not settle the construct or the ends of the probe. For some of these results: At least one verdict rests on a figure or table, not on a statement of the authors.

The values below come from paper PMC3799434, “RNA polymerase III-specific general transcription factor IIIC contains a heterodimer resembling TFIIF Rap30/Rap74” (Nucleic Acids Research, 2013).

Consider “CGAAGTGGCCGAGTGGTCTATGGCG (double strand) [A-box dsDNA (25 bp)]”, for which the binding result was “binds” in data set [1], “binds more weakly” in data set [2], “binds more weakly” in data set [3] and “binds more weakly” in data set [4].
